Laboratory results: PubChem BioAssay AID2417 (National Center for Advancing Translational Sciences (NCATS), 2010)
In all, about 140,000 compounds went through this assay and about 4,300 (3.1%) were called active. The inconclusive results got no clear call from the source; some entries with a clear call stand among them for comparison.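 How the source made its calls: active means readout at or below -70, meaning at least 70% loss of cells showing the perinucleolar compartment, a nuclear body marking cancer cells; inconclusive means readout between -30 and a set limit; inactive means the rest.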 Some compounds were tested as several samples or in several runs, with calls that do not always agree.

Experiment: High Content Assay for Compounds that inhibit the Assembly of the Perinucleolar Compartment;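 further: plate controls were DMSO wells for no effect and camptothecin positive control wells for full effect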
Conditions: PC3M PTB-GFP, PNC prevalence imaging, 16 h; at 10 µM; hits give low values
How it was run: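 PC3M cells stably expressing PTB-GFP, 750–1000 cells/well, treated 16 h at 37 °C with compound (23 nl of library stock), in duplicate. After paraformaldehyde fixation and Hoechst stain, imaged at 20x; PNC prevalence scored by image analysis.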

SMILES	activity change (PNC), negative = inhibition
O=C(/C=C/Nc1ccccc1F)c1ccc(Br)cc1	active: -115%
CC(C)N(CCCNC(=O)C1CCN(S(=O)(=O)N2CCOCC2)CC1)Cc1ccccc1	inconclusive: -40.2%
N#Cc1nc(Cc2cccc3ccccc23)oc1NCc1ccc2c(c1)OCO2	inconclusive: -61.9%
Cc1ccc(CSc2nnc(C)c(=O)n2N)cc1	inconclusive: -57.4%
CC1=CC(C)(C)N(C(=O)CN2C(=O)c3ccccc3C2=O)c2ccc(C)cc21	inconclusive: -69.9%
O=C(NCC1COc2ccccc2O1)C1CCC(CNc2c(N3CCCCC3)c(=O)c2=O)CC1 (centres undefined)	inconclusive: -36.6%
O=C(CCCOc1ccc(Cl)cc1)N1CCCCC1	inactive: -8.28%
CCc1nc(C)cc(N)c1OCc1ccccc1	inconclusive: -57%
Cc1c(Cc2ccc3c(c2)OCO3)sc(NC(=O)c2cccc3ccccc23)c1C(N)=O	inactive: 36.2%
Cc1cc(C(C)(C)C)cc(S(=O)(=O)Nc2cccc(C(=O)O)c2)c1C	inconclusive: -34.2%
Cc1ccc(NC(=O)COC(=O)CN2C(=O)C3CCCCC3C2=O)cc1S(=O)(=O)N1CCOCC1 (centres undefined)	inconclusive: -73%
c1ccc(CCc2nn3c(Cn4nnc5ccccc54)nnc3s2)cc1	inactive: -18%
CCOC(=O)CSc1nc2c(c(=O)n(C)c(=O)n2C)n1CCCc1ccccc1	inconclusive: -53%
CCOc1ccc(-c2nnc(-c3ccccc3)n2-c2ccccc2)cc1	inactive: -5.43%
CCOC(=O)N1CCN(C(=O)Cc2ccc(-n3c(=O)[nH]c4ccccc4c3=O)cc2)CC1	inconclusive: -54.5%
CCOc1ccc(CCNC(=O)C2CCCN(c3nn4c(=O)cc(C)nc4s3)C2)cc1OCC (centres undefined)	inconclusive: -45.3%
CCOP(=O)(c1ccccc1)C1(C#N)CCCC1 (centres undefined)	inconclusive: -45.3%
C/C(N)=C(/C#N)C(=O)COC(=O)c1cccc2ccccc12	inactive: 31.3%
N#C/C(=N\O)c1nc(-c2ccccc2)cs1	active: -127%
O=C(NC(Cc1ccccc1)C(=O)Oc1ccc2c(C(F)(F)F)cc(=O)oc2c1)OCc1ccccc1 (centres undefined)	inactive: -3.33%
COc1ccc(OC2C(=O)N(CCc3ccc(OC)c(OC)c3)C2c2ccc3c(c2)OCO3)cc1 (centres undefined)	inconclusive: -73.9%
O=C1CCCC(=O)N1c1ccc(Oc2ccc(Cl)cc2)cc1	inconclusive: -30%
CC(=C\c1ccco1)/C=C(\C#N)C(=O)NCCc1c[nH]c2ccccc12	inactive: 1.47%

SMILES	activity change (PNC), negative = inhibition
O=C(COC(=O)CCCN1C(=O)c2ccccc2C1=O)Nc1ncc(Cl)cc1Cl	active: -100%
COCCn1c(=O)c2cc3c(=O)n(CCOC)c(=O)c3cc2c1=O	inactive: -25.6%
COC(=O)c1ccc(Cn2c(C)cc(C)[n+]2C)o1	inconclusive: -38.7%
Cc1ccc(-n2c(SCC(=O)Nc3ccc4c5c(cccc35)CC4)nc(O)cc2=O)cc1	inconclusive: -66.7%
O=C(NCc1cccs1)c1nn2cccnc2c1Cl	inconclusive: -43.9%
COc1ccc(CCNCc2ccc(OCc3ccc(Cl)nc3)c(OC)c2)cc1OC	inactive: 2.27%
CCOC(=O)C1CCN(C(=O)c2ccc(Cl)c(Cl)c2)CC1	inconclusive: -67%
Cc1ccc(C(C#N)c2ccc3c(C(F)(F)F)cc(C(F)(F)F)nc3n2)cc1 (centres undefined)	inactive: -24.2%
CCCOc1ccc(N2C(=O)CC(NNC(=O)c3ccc(COc4ccccc4)o3)C2=O)cc1 (centres undefined)	inactive: -6.02%
Cc1cc(N2CCC(C(=O)NC3CCCCC3)CC2)nc(-c2ccccc2)n1	inconclusive: -50.3%
CCCn1c(CNc2ccccc2O)nc2ccccc21	inactive: 9.27%
COc1cc(/C=C(\C#N)C(=O)NCC2CCCO2)c([N+](=O)[O-])cc1OC (centres undefined)	inactive: -1.22%
CCOC(=O)c1sc(=S)n(C)c1NC(=O)c1ccccc1	inconclusive: -33.9%
Nc1nc2ccccc2n1C(=O)CCc1ccccc1	active: -86.7%
O=C(Cn1cc(-c2nnnn2-c2ccc(Cl)cc2)c(=O)c2ccccc21)c1ccccc1	inconclusive: -43.4%
C/C(=N\NC(=O)c1ccccc1F)c1ccc2c(c1)Nc1ccccc1S2	inconclusive: -56.4%
CCOc1ccc2[nH]c(=O)c(CN(Cc3cccs3)Cc3nnnn3C(C)(C)CC)cc2c1	inactive: -12.2%
Cc1ccc2nc(NC(=O)C(NS(=O)(=O)c3cccc4nsnc34)C(C)C)sc2c1 (centres undefined)	inconclusive: -35.1%
COc1ccc(CNC(=O)c2ccccc2SC)cc1	inactive: 4.6%
Cc1ccc(N2CC(C(=O)N3CCN(C(=O)c4ccco4)CC3)CC2=O)cc1 (centres undefined)	inconclusive: -31.4%
COCCn1c(SCC#N)nnc1-c1ccc(OC)cc1	active: -100%
CCC(=O)NC(NC(=S)Nc1ccc(S(N)(=O)=O)cc1)C(Cl)(Cl)Cl (centres undefined)	inactive: 31.3%
Cc1c(C(=O)O)oc2ccc(S(=O)(=O)N3CC(C)CC(C)C3)cc12 (centres undefined)	inactive: -11.3%

SMILES	activity change (PNC), negative = inhibition
CCN1CCN(CC(O)COCc2ccccc2)CC1 (centres undefined)	inconclusive: -45.2%
COc1ccc(C)cc1NC(=O)C(=O)N/N=C(\C)CC(=O)Nc1cccnc1	inconclusive: -32.8%
O=C(CCC(=O)NCCCc1ccccc1)NCCCc1ccccc1	inconclusive: -33.2%
Cc1[nH]nc2c1C(c1cccnc1)N(c1ccc(Br)cc1)C2=O (centres undefined)	active: -83.1%
O=C(CSc1nnnn1-c1ccc(O)cc1)Nc1ccc(N2CCOCC2)c(Cl)c1	inconclusive: -34.8%
COCCn1c(=S)[nH]c2cc(C(=O)N3CCc4ccccc43)ccc2c1=O	inconclusive: -31.3%
CCN1C(=O)/C(=C2/C=Cc3ccccc3N2C)OC1=S	inconclusive: -54%
COc1c(OC(C)=O)ccc(/C=C/c2ccc3cccc(OCc4ccccc4)c3n2)c1[N+](=O)[O-]	inconclusive: -34.4%
Cc1cccc(-c2nc3ccccc3c(=O)n2NC(=O)Cc2ccc(Cl)cc2)c1	inconclusive: -53.3%
COc1ccc(Nc2cc(C)nc(-n3nc(C)cc3C)n2)cc1	active: -93.3%
CC1CCCN(C(=O)CNC(=O)Cn2ccc3ccccc3c2=O)C1 (centres undefined)	inconclusive: -47%
COC(=O)CSc1nc2cc(C)cc(C)c2cc1C#N	inactive: 21.4%
O=C(C1CC1)N1CCN=C1SCc1ccccc1Cl	inconclusive: -38.9%
CC1(C)CC(=O)C2=C(C1)Nc1ccccc1NC2c1cccnc1 (centres undefined)	inconclusive: -36.2%
O=C(Nc1ccc2c(c1)OCO2)C1CCN(S(=O)(=O)Cc2ccccc2)CC1	inactive: 18.8%
CCn1cc(/C=N\NC(=O)C2(C)CC2(Cl)Cl)c(C)n1 (centres undefined)	inactive: -25%
O=C(CCc1nc(-c2ccccc2F)no1)NCCN1CCN(Cc2ccccc2)CC1	inconclusive: -55%
Cc1ccc(C(=O)CSc2nnc(-c3ccco3)n2CC2CCCO2)cc1 (centres undefined)	inconclusive: -41.7%
C=CCn1c(N)cc(=O)nc1SC(C)C(=O)Nc1cccc2ccccc12 (centres undefined)	inconclusive: -55.5%
O=C(c1ccc(Br)s1)N1CCN(Cc2ccc3c(c2)OCO3)CC1	inactive: 34.1%
Cc1ccc(S(=O)(=O)N(C)c2ccccc2)cc1	inconclusive: -31.9%
Cc1ccc(C(=O)N/C(=C\c2ccco2)C(=O)NCCc2c[nH]c3ccccc23)cc1	inconclusive: -30.1%
COc1ccccc1C/C(N)=N/OC(=O)c1ccc(C)c([N+](=O)[O-])c1	inconclusive: -44.2%

For reference, some entries already given.
SMILES	activity change (PNC), negative = inhibition
CC1CCCN(C(=O)CNC(=O)Cn2ccc3ccccc3c2=O)C1 (centres undefined)	inconclusive: -47%
COC(=O)CSc1nc2cc(C)cc(C)c2cc1C#N	inactive: 21.4%

More entries

SMILES	activity change (PNC), negative = inhibition
Cc1c(C#N)c2ccccc2n1CC(=O)NCCc1c[nH]c2ccccc12	inconclusive: -30.7%
CNC(=O)NC(=O)CSc1ccc(NC(C)=O)cc1	inconclusive: -36.4%
Cc1ccc(/C=c2\s/c(=C(/C#N)C(=O)N3CCCC3)n(Cc3ccco3)c2=O)s1	active: -89.9%
O=C(c1cc(N2C(=O)C3C4CCC(C4)C3C2=O)ccc1Cl)N1CCN(c2ccc(F)cc2)CC1 (centres undefined)	inactive: 0.815%
COC(=O)CSc1nc2sc3c(c2c(=O)n1C1CCCCC1)CCN(C)C3	inconclusive: -49.3%
COc1ccc(-n2nnc3c(=O)n(CC(=O)N4CCC(Cc5ccccc5)CC4)cnc32)cc1	inconclusive: -36.4%
Cc1ccc(S(=O)(=O)N2CCCC2)cc1S(=O)(=O)N1CCCC1	inconclusive: -71%
Fc1ccccc1Cc1nnc2n1N=C(c1ccc(Cl)cc1)CS2	inactive: 25.8%
S=C(Nc1ccccc1Cl)Nc1ccc(Cl)cc1Cl	inactive: 3.71%
O=S1(=O)CCN(Cc2ccc(Cl)cc2)CC1	inconclusive: -55.5%
Clc1ccc(CNCc2cccs2)c(Cl)c1	inconclusive: -42.7%
CCCn1nnnc1NC(=O)c1ccc2ccccc2c1	inconclusive: -60%
Cc1cc(C)nc(NS(=O)(=O)c2ccc(N3C(=O)C4CC=C(Cl)CC4C3=O)cc2)n1 (centres undefined)	inconclusive: -61.5%
CC(C)CN(CC(C)C)CC(O)COc1ccccc1Br (centres undefined)	inconclusive: -44.8%
O=C(CSc1oc(-c2ccco2)nc1S(=O)(=O)c1ccccc1)NCC1CCCO1 (centres undefined)	inactive: -14.7%
Cc1ccc(NC(=O)CSC(N)=O)cc1Cl	inactive: 0.348%
Brc1cnc(N2CCCC2)nc1N1CCOCC1	inconclusive: -44%
Cc1ccc(Cn2c(Cc3ccccc3)nc3ccccc32)cc1	inconclusive: -31.9%
CCOC(=O)c1sc(NC(=O)COC(=O)CNC(=O)c2ccco2)c(C(=O)OCC)c1C	inconclusive: -64.6%
Cc1ccc(N=Nc2c(N)[nH]n3c(=O)cc(-c4ccccc4)nc23)cc1	inactive: -29.9%

As entered above:
In activity change (PNC), negative = inhibition, Cc1ccc(C(=O)N/C(=C\c2ccco2)C(=O)NCCc2c[nH]c3ccccc23)cc1 has the entry inconclusive: -30.1%
In activity change (PNC), negative = inhibition, Cc1ccc(S(=O)(=O)N2CCCC2)cc1S(=O)(=O)N1CCCC1 has the entry inconclusive: -71%
In activity change (PNC), negative = inhibition, O=C(c1cc(N2C(=O)C3C4CCC(C4)C3C2=O)ccc1Cl)N1CCN(c2ccc(F)cc2)CC1 (centres undefined) has the entry inactive: 0.815%
